According to PubChem BioAssay AID720504 (National Center for Advancing Translational Sciences (NCATS), 2013):
About 10,000 (2.8%) of roughly 360,000 compounds were called active. The inconclusive results got no clear call from the source; some entries with a clear call stand among them for comparison. The call rests on the fitted dose curve; in most records, active means well fitted inhibition curve with a large enough effect; inconclusive means small, poorly fitted or top-dose-only effect; inactive means flat fitted curve, though single readings scatter. Where the call is inconclusive, the potency comes from a doubtful curve fit.

Protein sequences, listed by entry. Tags and fused reporters are not part of them.
UniProt P53350, whole entry, looked up: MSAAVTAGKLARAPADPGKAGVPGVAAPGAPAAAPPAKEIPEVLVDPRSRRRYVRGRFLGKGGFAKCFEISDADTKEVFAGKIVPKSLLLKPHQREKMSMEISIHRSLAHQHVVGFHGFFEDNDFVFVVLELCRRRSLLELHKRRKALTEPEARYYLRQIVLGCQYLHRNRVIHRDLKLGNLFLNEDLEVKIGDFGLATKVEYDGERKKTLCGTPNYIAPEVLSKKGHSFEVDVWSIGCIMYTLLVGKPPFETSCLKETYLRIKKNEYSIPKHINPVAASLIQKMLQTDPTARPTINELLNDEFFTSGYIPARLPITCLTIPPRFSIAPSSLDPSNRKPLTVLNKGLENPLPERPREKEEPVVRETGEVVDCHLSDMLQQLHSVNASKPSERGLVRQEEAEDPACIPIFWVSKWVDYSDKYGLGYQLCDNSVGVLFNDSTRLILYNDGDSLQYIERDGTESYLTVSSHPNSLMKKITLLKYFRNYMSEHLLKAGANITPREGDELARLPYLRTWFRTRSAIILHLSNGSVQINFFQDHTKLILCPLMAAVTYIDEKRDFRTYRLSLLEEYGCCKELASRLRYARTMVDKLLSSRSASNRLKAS

Each compound was assayed against Serine/threonine-protein kinase PLK1 (Homo sapiens) (UniProt P53350) (assay: qHTS for Inhibitors of PLK1-PDB (polo-like kinase 1 - polo-box domain): Primary Screen). Settings: Plk1 PBD binding of FITC phosphopeptide, fluorescence polarization.
Text: The polo-like kinase 1 (Plk1) is a member of a conserved subfamily of serine / threonine protein kinases that plays a pivotal roles in cell proliferation. It has a C-terminal non-catalytic region called the polo-box domain (PBD) that plays a crucial role in the subcellular localization of the Plk1. […] Furthermore, depletion of the overexpressed Plk1 by RNAi efficiently induces apoptotic cell death in cancer and reduces tumor growth in mouse xenograft models. Thus, targeting Plk1 is an appealing strategy for anti-cancer therapy. Therefore, this project aimed to screen the Molecular Libraries Small Molecule Repository (MLSMR) using a novel approach to find inhibitors that target the Plk1 PBD instead of the conventional N-terminal catalytic domain. This project employed a fluorescence polarization (FP) assay using a FITC-conjugated phospho-9-mer (p-9-mer) peptide and purified human Plk1 PBD protein. The identified small molecule inhibitors of Plk1 PBD can then further be developed into useful tools for biomedical and clinical research that complements or replaces current relevant disease therapy. NIH Chemical Genomics Center [NCGC] NIH Molecular Libraries Probe Centers Network [MLPCN] MLPCN Grant: MH100728 Assay Submitter (PI): Kyung Lee, NCI
Four microliter of 25 nM FITC-p-9-mer + 60 nM Plk1 PBD in buffer solution (final concentrations 25 nM and 60 nM respectively) or 4 uL of 25 nM FITC-p-9-mer (final concentration 25 nM) in buffer will be dispensed into a 1,536 Greiner medium-binding black solid plate. Small molecules at final concentrations of 18 nM to 57 uM and positive control phospho-9-mer (sequence: Ac-PPLHSpTAI-NH2) at final concentrations 26 nM to 57 uM and phospho-13-mer (sequence: Ac-[…]pTAI-NH2) at final concentrations of 1 nM to 2.3 uM will be pin-transferred (23 nL) to the plate via a Kalypsys pin-tool robotics equipped with a 1,536-pin array. The reaction plate will be centrifuged for 1 min at 1000 rpm and incubated at room temperature for 10 min. The FITC fluorescence signals will be read using the PerkinElmer ViewLux plate reader at 480 / 20 nm excitation and 540 / 20 nm S and P polarization emission wavelengths. Reagent bottles will be kept submerged into 4 °C recirculating chiller bath and all liquid lines will be covered with aluminum foil to minimize degradation. Library plates will be screened starting from the lowest to the highest concentrations to minimize compound carryover. Vehicle only plates, with DMSO being pin-transferred instead of compound solutions, will be included regularly throughout the screen to record any systematic shifts in assay signal.
Further: nearly all actives have a fitted effect of over 65% in size.
On the % scale 0 is the no-effect control and ±100 the full control effect; potency means the concentration at half of the fitted maximal effect.
Wherever max response, negative = inhibition is given: series mostly up to about 57 µM.

| SMILES | Potency | max response, negative = inhibition |
| --- | --- | --- |
| O=C1C=C(c2c(O)ccc3ccccc23)c2ccccc2C1=O | active: 7.52 µM |  |
| COc1cc2c3nnc(-c4ccc(F)cc4)c-3cn(Cc3ccc(F)cc3)c2cc1OC | inconclusive: 21.2 µM [inhibitor, partial curve] |  |
| Cn1c(-c2ccc3c(c2)OCO3)cnc1N | inconclusive: 23.8 µM [inhibitor, single point] |  |
| Cc1ccccc1Cn1cc(NC(=O)COc2ccccc2)cn1 |  | inconclusive: -19.5% [inhibitor] |
| O=C(Nc1nnc(SCC(=O)N2CCCCC2)s1)c1cccs1 | inconclusive: 26.7 µM [inhibitor, single point] |  |
| Cc1nc(-c2ccc(Cl)cc2)sc1C1(C)CC(c2ccc(F)cc2)=NO1 (configuration not stated) |  | inactive: 2.56% |
| O=S(=O)(NC1CC1)c1ccc(F)c(F)c1 | inconclusive: 33.6 µM [inhibitor, single point] |  |
| CC(=O)Nc1cccc(-c2csc(Nc3ccc(Cl)cn3)n2)c1 |  | inactive: -2.26% |
| Cc1[nH]n(-c2cccc(Cl)c2)c(=O)c1-c1ccc(Cl)cc1 | inconclusive: 23.8 µM [inhibitor, single point] |  |
| O=C(Nc1ccc(N2CCOCC2)cc1N1CCOCC1)c1ccco1 | active: 26.7 µM |  |
| CCCCOc1ccc(-c2csc(N)n2)cc1[N+](=O)[O-] |  | inactive: -0.105% |
| Cc1cc2oc(=O)cc(Cn3ncc(Cl)c(Cl)c3=O)c2cc1Cl |  | inactive: -26.6% |
| CC(=O)N1c2ccc(S(=O)(=O)NCC3CCC(C(=O)NC4CCCCC4C)CC3)cc2CC1C (configuration not stated) | active: 26.7 µM |  |
| CCC(=O)Nc1nc2ccccc2n1Cc1ccc(Cl)cc1 |  | inactive: -11% |
| CC(NS(=O)(=O)c1ccc2c(c1)OCCO2)c1ccccc1 (configuration not stated) |  | inactive: -3.61% |
| COc1cc(C2/C(=C(\O)c3ccc4c(c3)OCCO4)C(=O)C(=O)N2Cc2ccco2)ccc1O (configuration not stated) |  | inactive: -6.64% |
| CC(=O)NS(=O)(=O)c1ccc(N=c2ssc3c2-c2ccc(C)cc2NC3(C)C)cc1 | inconclusive: 33.6 µM [inhibitor, single point] |  |
| CN(C)C=Nc1c(Br)cc(Br)c2nonc12 | inconclusive: 23.8 µM [inhibitor, single point] |  |
| COc1ccc(Cl)cc1C(Nc1cccnc1)c1ccc2cccnc2c1O (configuration not stated) | active: 4.23 µM |  |
| COC(=O)c1ccc(NC(=S)N2CCC(C(N)=O)CC2)cc1 | inconclusive: 13.4 µM [inhibitor, partial curve] |  |
| CCCNC(=S)Nc1c(C)n(C)n(-c2ccccc2)c1=O |  | inconclusive: -32.5% [inhibitor] |
| O=[N+]([O-])c1ccc(N=Nc2c(Cl)cc(O)cc2Cl)cc1 | inconclusive: 23.8 µM [inhibitor, single point] |  |
| O=C(/C=C/c1ccco1)NC(=S)NNC(=O)c1ccco1 | inconclusive: 29.9 µM [inhibitor, single point] |  |
| C/C(=N\Nc1ncc(Cl)cc1Cl)c1ccc(C#N)cc1 |  | inactive: 2.34% |

| SMILES | Potency | max response, negative = inhibition |
| --- | --- | --- |
| Cc1ccc(S(=O)(=O)N/N=C\c2ccc3c(c2)OCO3)cc1C | inconclusive: 33.6 µM [inhibitor, partial curve] |  |
| O=C(CN1C(=O)S/C(=C\c2cc(Cl)c(O)c(Cl)c2)C1=O)Nc1ccccc1 | inconclusive: 37.7 µM [inhibitor, single point] |  |
| CC(C)c1ccc(NC(=O)CNCC(c2ccccc2)N(C)C)cc1 (configuration not stated) |  | inactive: 8.18% |
| Cc1cccc(C)c1NC(=O)N1CCCC1C(=O)Nc1ccc(-n2cnnn2)cc1 (configuration not stated) | inconclusive: 18.9 µM [inhibitor, single point] |  |
| CC(OC(=O)c1ccc(F)c(S(=O)(=O)N2CCOCC2)c1)C(=O)NC1CCCC1 (configuration not stated) |  | inactive: -1.91% |
| O=C(CC1CC2CCC1C2)Nc1nc(-c2ccccn2)cs1 (configuration not stated) | inconclusive: 21.2 µM [inhibitor, partial curve] |  |
| COc1ccc(C(=O)Nc2cccc(/C=C(\CCC(=O)O)c3nc4ccccc4s3)c2)cc1 | active: 10.6 µM |  |
| O=C(CCCn1c(=S)[nH]c2ccsc2c1=O)NCc1ccco1 |  | inactive: -15.2% |
| COc1ccc2c(c1)-c1ccccc1S(=O)(=O)N(C)C2 |  | inactive: -12.1% |
| c1ccc2c(-c3ccc(OCCN4CCCCC4)cc3)c(-c3ccsc3)sc2c1 |  | inactive: 2.18% |
| COc1ccc(N2CCN(CC(O)COC(c3ccccc3)c3ccccc3)CC2)cc1 (configuration not stated) |  | inactive: 0.799% |
| O=C(O)C1(Nc2ccccc2Cl)CCCC1 |  | inactive: 0.4% |
| COc1ccc(NC(=O)c2ccc3c(c2)NC(=O)CS3)cc1S(=O)(=O)Nc1ccc(Br)cc1 | inconclusive: 26.7 µM [inhibitor, partial curve] |  |
| O=C(CSc1nc2ccccc2[nH]1)N1CCN(C(=O)c2ccco2)CC1 | inconclusive: 21.2 µM [inhibitor, single point] |  |
| Cc1cccc(C(=O)n2cnnc2N)c1 |  | inactive: -25% |
| Cc1cccc(N2CCN(S(=O)(=O)c3ccc4c(c3)NC(=O)CS4)CC2)c1C | active: 26.7 µM |  |
| O=C(Oc1ccc(C(=S)N2CCOCC2)cc1Br)c1cc(Cl)ccc1Cl | inconclusive: 5.97 µM [inhibitor, partial curve] |  |
| O=C(Nc1ccc(Cl)cc1)C1CCCCN1S(=O)(=O)c1ccccc1 (configuration not stated) | inconclusive: 37.7 µM [inhibitor, partial curve, poor fit] |  |
| C=C(c1ccc(OCCO)cc1)c1ccc(OCCO)cc1 | active: 26.7 µM |  |
| O=C1NC(=S)S/C1=C\c1coc2ccccc2c1=O | inconclusive: 18.9 µM [inhibitor, partial curve] |  |
| C[C@@]12C(=O)N(c3ccc(C(F)(F)F)cc3)C(=O)N1[C@@H]1c3ccccc3OC[C@@H]1[C@H]2c1ccccc1 |  | inactive: -10.5% |
| CC(=O)c1cccc(NC(=O)C2Cc3c(-c4ccccc4Oc4ccccc4)ccnc3O2)c1 (configuration not stated) |  | inactive: -4.99% |
| CC(=O)c1ccc(Nc2ncnc3c2oc2ccccc23)cc1 |  | inactive: 1.22% |
| CCCCC(=O)Nc1ccc2c(c1)nc(CCN1CCOCC1)n2C | inconclusive: 23.8 µM [inhibitor, single point] |  |

Reformatted: three of the compounds above.
SMILES	Potency	max response, negative = inhibition
Cc1ccccc1Cn1cc(NC(=O)COc2ccccc2)cn1		inconclusive: -19.5% [inhibitor]
O=C(Oc1ccc(C(=S)N2CCOCC2)cc1Br)c1cc(Cl)ccc1Cl	inconclusive: 5.97 µM [inhibitor, partial curve]	
C=C(c1ccc(OCCO)cc1)c1ccc(OCCO)cc1	active: 26.7 µM	

Further entries follow:

| SMILES | Potency | max response, negative = inhibition |
| --- | --- | --- |
| Cc1ccc(S(=O)(=O)CC(=O)c2cc(C)c(O)c(C)c2)cc1 |  | inactive: -1.92% |
| CCOC(=O)C1=C(O)/C(=C/c2ccc(OCC(=O)O)c(OC)c2)SC1=Nc1ccc(OCC)cc1 | inconclusive: 26.7 µM [inhibitor, single point] |  |
| COC(=O)N/N=C/c1cc(C)n(-c2ccccc2)c1C |  | inconclusive: -10.6% [inhibitor] |
| CNC(=S)N(CCc1c(C)[nH]c2ccc(C)cc12)Cc1cc(OC)c(OC)c(OC)c1 |  | inactive: 3.35% |
| CN1CCc2c(C#N)c(N3CCCCC3)nc(NCc3ccccc3)c2C1 |  | inconclusive: -31.2% [inhibitor] |
| O=C(CSc1ccccn1)N1CCN(c2ccc(Cl)cc2)CC1 | active: 23.8 µM |  |
| COC(=O)c1ccc(OCCOc2ccc(C(=O)OC)cc2)cc1 | inconclusive: 26.7 µM [inhibitor, partial curve] |  |
| CC(=O)c1ccc(NC(=O)N2CCN(c3cccc(Cl)c3)CC2)cc1 |  | inactive: 0.914% |
| C[C@H](NC(=O)c1ccccc1Cl)C(=O)OCC(=O)NNC(=O)c1cccs1 |  | inactive: -7.41% |
| CCOc1ccc(C(c2c(C)[nH][nH]c2=O)c2c(C)[nH][nH]c2=O)cc1OC | inconclusive: 26.7 µM [inhibitor, partial curve] |  |
| N#C/C(=C\c1cc(Br)ccc1F)C(=O)NC1CC1 | inconclusive: 21.2 µM [inhibitor, single point] |  |
| CN(CC(=O)Nc1ccccc1Cl)CC(=O)Nc1sc2c(c1C(N)=O)CCC2 | inconclusive: 37.7 µM [inhibitor, partial curve] |  |
| CN(C)C(=S)SCC(=O)Nc1ccc(Cl)cc1Cl | inconclusive: 21.2 µM [inhibitor, partial curve] |  |
| COCCNc1ncnc2nc[nH]c12 | inconclusive: 21.2 µM [inhibitor, single point] |  |
| S=c1[nH]nc(Nc2cccc3ccccc23)s1 | inconclusive: 26.7 µM [inhibitor, partial curve] |  |
| COc1ccccc1N1CCN(C2CCCCC2NS(=O)(=O)c2ccc(Cl)cc2)CC1 (configuration not stated) | inconclusive: 37.7 µM [inhibitor, partial curve, poor fit] |  |
| CC(=O)/C(C#N)=C1\NC(=O)C(Cc2ccccc2)S1 (configuration not stated) | inconclusive: 33.6 µM [inhibitor, partial curve] |  |
| COc1cc(OC)c(-n2cc(-c3ccc(OC)c(OC)c3)[nH]c2=S)cc1Cl | active: 29.9 µM |  |
| COCC1CCN(C(=O)C2CCC(=O)N(Cc3cccc(C(F)(F)F)c3)C2)CC1 (configuration not stated) |  | inconclusive: -0.304% [inhibitor] |
| CN(C(=O)CCN1C(=O)C2C3C=CC(C3)C2C1=O)c1ccccc1 (configuration not stated) | inconclusive: 18.9 µM [inhibitor, partial curve] |  |
| CCOc1ccc(-n2ccnc(SCC(=O)Nc3ccc(OC)cc3OC)c2=O)cc1 | inconclusive: 23.8 µM [inhibitor, single point] |  |
| CN(C)C(=S)N=c1ssc(=S)n1Cc1ccccc1 | inconclusive: 21.2 µM [inhibitor, partial curve] |  |
| Cn1c(-c2ccsc2)c(-c2cccs2)c2cc(Br)ccc21 |  | inactive: 2.18% |
| C#CCOCCOCCOCCNc1nc(N2CCN(C(=O)[C@H](CCC(=O)O)n3cc(C(N)CO)nn3)CC2)nc(N2CCN(C(=O)[C@H](CCC(=O)O)n3cc(C(N)[C@H](C)CC)nn3)CC2)n1 (some centres not stated) | inconclusive: 37.7 µM [inhibitor, single point] |  |
